Measurements published in article PMC7582905, “Effect of Disulfide Cyclization of Ultrashort Cationic Lipopeptides on Antimicrobial Activity and Cytotoxicity” (International Journal of Molecular Sciences, 2020).
Where a SMILES comes first, the peptide text is derived from it. Bridges are numbered along the chain shown (N, C = ends). The star is where a group is joined. Palmitoyl = CCCCCCCCCCCCCCCC(=O)*

Legend:
Assay type in all cases: cell-based
[1] = system: human cervical adenocarcinoma cell line (HeLa S3); test: MTT assay; details: selectivity index
Description: To assess the cytotoxicity of the test lipopeptides (IC50), the classic MTT assay on 96-well polystyrene plates was performed for human keratinocytes (HaCaT) and human cervical adenocarcinoma cell line (HeLa S3) acquired from the ATCC. The assay utilizes colorimetric determination of the cell metabolic activity and the color intensity reflects the number of live cells that can be measured spectrophotometrically. The cell line was cultured in a Dulbecco’s modified Eagle Medium (Invitrogen) supplemented with 10% fetal bovine serum (v/v), 100 units/mL of penicillin, 100 μg/mL of streptomycin, and 2 mM l-glutamine and was stored at 37 °C in a humidified 5% CO2 incubator. Briefly, a day after plating of 500 cells per well, a series of concentrations (0.1–200 μg/mL) of the test compounds were applied. DMSO was added to the control cells at a final concentration of 1.0% (v/v), which was related to the maximal concentration of the solvent compounds used in the experiment. After 24 h of incubation with the lipopeptides at 37 °C in a humidified 5% CO2 incubator, a medium containing 1 mg/mL of MTT (3-(4,5-dimethylthiazol-2-yl)-2,5-diphenyltetrazolium bromide) was added to the wells up to a final concentration of 0.5 mg/mL. Subsequently, the plates were incubated at 37 °C for 4 h. Then, the medium was removed by suction, and the formazan product was solubilized with DMSO. The background absorbance at 630 nm was subtracted from that at 570 nm for each well (Epoch, BioTek Instruments, Winooski, VT, USA). Six replicates were conducted for each concentration. All experiments were repeated at least twice and the resulting IC50 values were calculated with a GraFit 7 software (v. 7.0, Erithacus, Berkley, CA, USA).

[2] = system: Candida albicans ATCC 10231; details: for SI = IC50HaCaT/MIC, C. albicans: selectivity index HaCaT (right value); for SI = HC50/MIC, C. albicans: selectivity index hRBCs (left value)
Description: (§1) The Staphylococcus aureus ATCC 25923, Staphylococcus epidermidis ATCC 14990, Escherichia coli ATCC 25922, Pseudomonas aeruginosa ATCC 9027, Candida albicans ATCC 10231, Candida glabrata ATCC 15126, Candida lipolytica PCM 2680-FY, and Candida tropicalis PCM 2709-FY strains were acquired from the Polish Collection of Microorganisms (PCM, Polish Academy of Sciences, Wrocław, Poland) and from the American Type Culture Collection (ATCC). All the strains were stored at −80 °C in Roti-Store cryo vials and before the tests were transferred into fresh Mueller–Hinton broth (MHB, Biocorp, Warsaw, Poland) for bacteria or RPMI-1640 (Sigma-Aldrich, Steinheim, Germany) for fungi and incubated for 24 h at 37 °C. Then, the cultures were seeded on Mueller–Hinton agar (BioMaxima, Lublin, Poland) or Sabouraud dextrose agar (SDA, BioMaxima, Lublin, Poland) plates, respectively, and incubated as just mentioned. These agar cultures were used for further microbiological assays. Cell densities for all assays were adjusted spectrophotometrically (Multiskan GO Microplate Spectrophotometer, Thermo Fisher Scientific, Vantaa, Finland) at 600 and 660 nm for bacteria and fungi, respectively.
(§2) The MICs were determined by broth microdilution method according to the Clinical and Laboratory Standard Institute guidelines For this purpose, initial inoculums of bacteria (5 × 10^5 CFU/mL) in MHB and yeasts (2 × 10^3 CFU/mL) in RPMI-1640 with 2% D-glucose were exposed to the ranging concentration of lipopeptides (0.5–256 μg/mL) and incubated at 37 °C for 18 h and 24 h, respectively. The experiments were conducted on 96-well microtiter polystyrene plates. The growth was assessed visually after incubation and the MIC was assumed as the lowest peptide concentration at which a noticeable growth of microorganisms was inhibited. All experiments were conducted in triplicate.

[3] = system: Candida glabrata ATCC 15126; details: for SI = IC50HaCaT/MIC, C. glabrata: selectivity index HaCaT (right value); for SI = HC50/MIC, C. glabrata: selectivity index hRBCs (left value)
Description: as §1, §2

[4] = system: Candida lipolytica PCM 2680-FY; details: for SI = IC50HaCaT/MIC, C. lipolytica: selectivity index HaCaT (right value); for SI = HC50/MIC, C. lipolytica: selectivity index hRBCs (left value)
Description: as §1, §2

[5] = system: Candida tropicalis PCM 2709-FY; details: for SI = IC50HaCaT/MIC, C. tropicalis: selectivity index HaCaT (right value); for SI = HC50/MIC, C. tropicalis: selectivity index hRBCs (left value)
Description: as §1, §2

[6] = system: Escherichia coli ATCC 25922; details: for SI = IC50HaCaT/MIC, E. coli: selectivity index HaCaT (right value); for SI = HC50/MIC, E. coli: selectivity index hRBCs (left value)
Description: as §1, §2

[7] = system: Pseudomonas aeruginosa ATCC 9027; details: for SI = IC50HaCaT/MIC, P. aeruginosa: selectivity index HaCaT (right value); for SI = HC50/MIC, P. aeruginosa: selectivity index hRBCs (left value)
Description: as §1, §2

[8] = system: Staphylococcus epidermidis ATCC 14990; details: for SI = IC50HaCaT/MIC, S. epidermidis: selectivity index HaCaT (right value); for SI = HC50/MIC, S. epidermidis: selectivity index hRBCs (left value)
Description: as §1, §2

CCCCCCCCCCCCCCCC(=O)N[C@H]1CSSC[C@@H](C(N)=O)NC(=O)[C@H](CCCCN)NC(=O)[C@H](CCCCN)NC(=O)[C@H](CCCCN)NC1=O [C1, C16-CKKKC-NH2] (Palmitoyl-CKKKC-NH2; disulfide 1-5)
SI (IC50 HaCaT/ IC50 HeLa) [1]: 0.9

CCCCCCCCCCCCCCCC(=O)N[C@H]1CSSC[C@@H](C(N)=O)NC(=O)[C@H](CCCCN)NC(=O)[C@H](CCCCN)NC(=O)[C@H](CCCCN)NC(=O)[C@H](CCCCN)NC1=O [C2, C16-CKKKKC-NH2] (Palmitoyl-CKKKKC-NH2; disulfide 1-6)
SI = IC50HaCaT/MIC, C. albicans [2]: 6.73 | SI = HC50/MIC, C. albicans [2]: 7.65 | SI = IC50HaCaT/MIC, C. glabrata [3]: 6.73 | SI = HC50/MIC, C. glabrata [3]: 7.65 | SI = IC50HaCaT/MIC, C. lipolytica [4]: 13.45 | SI = HC50/MIC, C. lipolytica [4]: 15.30 | SI = IC50HaCaT/MIC, C. tropicalis [5]: 13.45 | SI = HC50/MIC, C. tropicalis [5]: 15.30 | SI = IC50HaCaT/MIC, E. coli [6]: 0.42 | SI = HC50/MIC, E. coli [6]: 0.48 | SI = IC50HaCaT/MIC, P. aeruginosa [7]: 0.84 | SI = HC50/MIC, P. aeruginosa [7]: 0.96 | SI = IC50HaCaT/MIC, S. epidermidis [8]: 3.36 | SI = HC50/MIC, S. epidermidis [8]: 3.83 | SI (IC50 HaCaT/ IC50 HeLa) [1]: 1.5

CCCCCCCCCCCCCCCC(=O)N[C@H]1CSSC[C@@H](C(N)=O)NC(=O)[C@H](CCCCN)NC(=O)[C@H](CCCCN)NC(=O)[C@H](CCCCN)NC(=O)[C@H](CCCNC(=N)N)NC1=O [C3, C16-CRKKKC-NH2] (Palmitoyl-CRKKKC-NH2; disulfide 1-6)
SI (IC50 HaCaT/ IC50 HeLa) [1]: 0.9

CCCCCCCCCCCCCCCC(=O)N[C@H]1CSSC[C@@H](C(N)=O)NC(=O)[C@H](CCCCN)NC(=O)[C@H](CCCCN)NC(=O)[C@H](CCCNC(=N)N)NC(=O)[C@H](CCCCN)NC1=O [C4, C16-CKRKKC-NH2] (Palmitoyl-CKRKKC-NH2; disulfide 1-6)
SI = IC50HaCaT/MIC, C. albicans [2]: 16.90 | SI = HC50/MIC, C. albicans [2]: 61.20 | SI = IC50HaCaT/MIC, C. glabrata [3]: 8.45 | SI = HC50/MIC, C. glabrata [3]: 30.60 | SI = IC50HaCaT/MIC, C. lipolytica [4]: 33.80 | SI = HC50/MIC, C. lipolytica [4]: 122.40 | SI = IC50HaCaT/MIC, C. tropicalis [5]: 16.90 | SI = HC50/MIC, C. tropicalis [5]: 61.20 | SI = IC50HaCaT/MIC, E. coli [6]: 1.06 | SI = HC50/MIC, E. coli [6]: 3.83 | SI = IC50HaCaT/MIC, P. aeruginosa [7]: 0.13 | SI = HC50/MIC, P. aeruginosa [7]: 0.48 | SI = IC50HaCaT/MIC, S. epidermidis [8]: 4.23 | SI = HC50/MIC, S. epidermidis [8]: 15.30 | SI (IC50 HaCaT/ IC50 HeLa) [1]: 1.2

CCCCCCCCCCCCCCCC(=O)N[C@H]1CSSC[C@@H](C(N)=O)NC(=O)[C@H](CCCCN)NC(=O)[C@H](CCCNC(=N)N)NC(=O)[C@H](CCCCN)NC(=O)[C@H](CCCCN)NC1=O [C5, C16-CKKRKC-NH2] (Palmitoyl-CKKRKC-NH2; disulfide 1-6)
SI (IC50 HaCaT/ IC50 HeLa) [1]: 0.6

CCCCCCCCCCCCCCCC(=O)N[C@H]1CSSC[C@@H](C(N)=O)NC(=O)[C@H](CCCNC(=N)N)NC(=O)[C@H](CCCCN)NC(=O)[C@H](CCCCN)NC(=O)[C@H](CCCCN)NC1=O [C6, C16-CKKKRC-NH2] (Palmitoyl-CKKKRC-NH2; disulfide 1-6)
SI (IC50 HaCaT/ IC50 HeLa) [1]: 1.5

CCCCCCCCCCCCCCCC(=O)N[C@H]1CSSC[C@@H](C(N)=O)NC(=O)[C@H](CCCCN)NC(=O)[C@H](CCCCN)NC(=O)[C@H](CCCNC(=N)N)NC(=O)[C@H](CCCNC(=N)N)NC1=O [C7, C16-CRRKKC-NH2] (Palmitoyl-CRRKKC-NH2; disulfide 1-6)
SI (IC50 HaCaT/ IC50 HeLa) [1]: 1.0

CCCCCCCCCCCCCCCC(=O)N[C@@H](CCCCN)C(=O)N[C@@H](CCCCN)C(=O)N[C@@H](CCCCN)C(N)=O [L1, C16-KKK-NH2]
SI (IC50 HaCaT/ IC50 HeLa) [1]: 1.3

CCCCCCCCCCCCCCCC(=O)N[C@@H](CCCCN)C(=O)N[C@@H](CCCCN)C(=O)N[C@@H](CCCCN)C(=O)N[C@@H](CCCCN)C(N)=O [L2, C16-KKKK-NH2] (Palmitoyl-KKKK-NH2)
SI = IC50HaCaT/MIC, C. albicans [2]: 0.73 | SI = HC50/MIC, C. albicans [2]: 3.31 | SI = IC50HaCaT/MIC, C. glabrata [3]: 0.37 | SI = HC50/MIC, C. glabrata [3]: 1.65 | SI = IC50HaCaT/MIC, C. lipolytica [4]: 2.94 | SI = HC50/MIC, C. lipolytica [4]: 13.24 | SI = IC50HaCaT/MIC, C. tropicalis [5]: 5.88 | SI = HC50/MIC, C. tropicalis [5]: 26.48 | SI = IC50HaCaT/MIC, E. coli [6]: 0.73 | SI = HC50/MIC, E. coli [6]: 3.31 | SI = IC50HaCaT/MIC, P. aeruginosa [7]: 1.47 | SI = HC50/MIC, P. aeruginosa [7]: 6.62 | SI = IC50HaCaT/MIC, S. epidermidis [8]: 2.94 | SI = HC50/MIC, S. epidermidis [8]: 13.24 | SI (IC50 HaCaT/ IC50 HeLa) [1]: 1.8

CCCCCCCCCCCCCCCC(=O)N[C@@H](CCCNC(=N)N)C(=O)N[C@@H](CCCCN)C(=O)N[C@@H](CCCCN)C(=O)N[C@@H](CCCCN)C(N)=O [L3, C16-RKKK-NH2] (Palmitoyl-RKKK-NH2)
SI (IC50 HaCaT/ IC50 HeLa) [1]: 2.8

CCCCCCCCCCCCCCCC(=O)N[C@@H](CCCCN)C(=O)N[C@@H](CCCNC(=N)N)C(=O)N[C@@H](CCCCN)C(=O)N[C@@H](CCCCN)C(N)=O [L4, C16-KRKK-NH2] (Palmitoyl-KRKK-NH2)
SI = IC50HaCaT/MIC, C. albicans [2]: 0.27 | SI = HC50/MIC, C. albicans [2]: 4.99 | SI = IC50HaCaT/MIC, C. glabrata [3]: 0.13 | SI = HC50/MIC, C. glabrata [3]: 2.49 | SI = IC50HaCaT/MIC, C. lipolytica [4]: 4.30 | SI = HC50/MIC, C. lipolytica [4]: 79.80 | SI = IC50HaCaT/MIC, C. tropicalis [5]: 2.15 | SI = HC50/MIC, C. tropicalis [5]: 39.90 | SI = IC50HaCaT/MIC, E. coli [6]: 0.54 | SI = HC50/MIC, E. coli [6]: 9.98 | SI = IC50HaCaT/MIC, P. aeruginosa [7]: 0.13 | SI = HC50/MIC, P. aeruginosa [7]: 2.49 | SI = IC50HaCaT/MIC, S. epidermidis [8]: 0.54 | SI = HC50/MIC, S. epidermidis [8]: 9.98 | SI (IC50 HaCaT/ IC50 HeLa) [1]: 1.4

CCCCCCCCCCCCCCCC(=O)N[C@@H](CCCCN)C(=O)N[C@@H](CCCCN)C(=O)N[C@@H](CCCNC(=N)N)C(=O)N[C@@H](CCCCN)C(N)=O [L5, C16-KKRK-NH2] (Palmitoyl-KKRK-NH2)
SI (IC50 HaCaT/ IC50 HeLa) [1]: 0.4

CCCCCCCCCCCCCCCC(=O)N[C@@H](CCCCN)C(=O)N[C@@H](CCCCN)C(=O)N[C@@H](CCCCN)C(=O)N[C@@H](CCCNC(=N)N)C(N)=O [L6, C16-KKKR-NH2] (Palmitoyl-KKKR-NH2)
SI (IC50 HaCaT/ IC50 HeLa) [1]: 2.1

CCCCCCCCCCCCCCCC(=O)N[C@@H](CCCNC(=N)N)C(=O)N[C@@H](CCCNC(=N)N)C(=O)N[C@@H](CCCCN)C(=O)N[C@@H](CCCCN)C(N)=O [L7, C16-RRKK-NH2] (Palmitoyl-RRKK-NH2)
SI (IC50 HaCaT/ IC50 HeLa) [1]: 2.7
